In paper PMC10587083 one finds binding data, which are given here for 5 molecules.

Amino acid sequences for entries named in this document (tags omitted). Residues count along the entry.
UniProt O43567, residues 35-381: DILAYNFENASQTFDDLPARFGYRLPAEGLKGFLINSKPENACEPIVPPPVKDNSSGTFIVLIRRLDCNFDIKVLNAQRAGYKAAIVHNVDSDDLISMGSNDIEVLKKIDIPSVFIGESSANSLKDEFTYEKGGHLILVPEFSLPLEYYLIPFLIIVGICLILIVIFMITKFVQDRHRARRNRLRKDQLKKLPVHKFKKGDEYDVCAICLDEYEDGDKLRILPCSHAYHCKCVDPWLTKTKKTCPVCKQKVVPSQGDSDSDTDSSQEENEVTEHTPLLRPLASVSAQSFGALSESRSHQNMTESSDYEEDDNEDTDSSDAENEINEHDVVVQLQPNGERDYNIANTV
UniProt Q86WV6: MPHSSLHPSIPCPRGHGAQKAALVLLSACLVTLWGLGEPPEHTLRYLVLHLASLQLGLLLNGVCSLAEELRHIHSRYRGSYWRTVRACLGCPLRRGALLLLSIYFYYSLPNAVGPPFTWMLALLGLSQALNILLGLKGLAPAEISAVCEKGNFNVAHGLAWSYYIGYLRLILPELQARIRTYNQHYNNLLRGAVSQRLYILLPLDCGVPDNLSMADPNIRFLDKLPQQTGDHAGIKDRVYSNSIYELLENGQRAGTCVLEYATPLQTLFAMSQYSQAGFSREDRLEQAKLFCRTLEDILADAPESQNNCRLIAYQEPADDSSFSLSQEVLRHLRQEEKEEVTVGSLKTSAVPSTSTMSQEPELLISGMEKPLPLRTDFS
UniProt P18850: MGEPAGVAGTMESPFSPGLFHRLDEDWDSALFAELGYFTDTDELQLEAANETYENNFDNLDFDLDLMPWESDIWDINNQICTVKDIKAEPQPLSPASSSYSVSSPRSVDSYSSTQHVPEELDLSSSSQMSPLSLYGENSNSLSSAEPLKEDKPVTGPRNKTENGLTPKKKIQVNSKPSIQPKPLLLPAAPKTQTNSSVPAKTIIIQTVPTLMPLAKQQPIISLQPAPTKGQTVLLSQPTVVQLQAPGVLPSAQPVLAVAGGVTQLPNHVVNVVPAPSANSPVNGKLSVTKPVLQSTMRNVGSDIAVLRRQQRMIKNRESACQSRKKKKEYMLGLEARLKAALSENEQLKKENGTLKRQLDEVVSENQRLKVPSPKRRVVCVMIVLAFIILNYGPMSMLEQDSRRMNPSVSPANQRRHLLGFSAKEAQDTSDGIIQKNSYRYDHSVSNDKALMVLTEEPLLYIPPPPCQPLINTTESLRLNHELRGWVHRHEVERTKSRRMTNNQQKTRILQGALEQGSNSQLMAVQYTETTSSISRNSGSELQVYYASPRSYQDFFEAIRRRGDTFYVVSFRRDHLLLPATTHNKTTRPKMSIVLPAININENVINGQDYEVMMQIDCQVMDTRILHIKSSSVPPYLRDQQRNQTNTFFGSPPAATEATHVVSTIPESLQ
UniProt Q9NZJ5, residues 30-1116: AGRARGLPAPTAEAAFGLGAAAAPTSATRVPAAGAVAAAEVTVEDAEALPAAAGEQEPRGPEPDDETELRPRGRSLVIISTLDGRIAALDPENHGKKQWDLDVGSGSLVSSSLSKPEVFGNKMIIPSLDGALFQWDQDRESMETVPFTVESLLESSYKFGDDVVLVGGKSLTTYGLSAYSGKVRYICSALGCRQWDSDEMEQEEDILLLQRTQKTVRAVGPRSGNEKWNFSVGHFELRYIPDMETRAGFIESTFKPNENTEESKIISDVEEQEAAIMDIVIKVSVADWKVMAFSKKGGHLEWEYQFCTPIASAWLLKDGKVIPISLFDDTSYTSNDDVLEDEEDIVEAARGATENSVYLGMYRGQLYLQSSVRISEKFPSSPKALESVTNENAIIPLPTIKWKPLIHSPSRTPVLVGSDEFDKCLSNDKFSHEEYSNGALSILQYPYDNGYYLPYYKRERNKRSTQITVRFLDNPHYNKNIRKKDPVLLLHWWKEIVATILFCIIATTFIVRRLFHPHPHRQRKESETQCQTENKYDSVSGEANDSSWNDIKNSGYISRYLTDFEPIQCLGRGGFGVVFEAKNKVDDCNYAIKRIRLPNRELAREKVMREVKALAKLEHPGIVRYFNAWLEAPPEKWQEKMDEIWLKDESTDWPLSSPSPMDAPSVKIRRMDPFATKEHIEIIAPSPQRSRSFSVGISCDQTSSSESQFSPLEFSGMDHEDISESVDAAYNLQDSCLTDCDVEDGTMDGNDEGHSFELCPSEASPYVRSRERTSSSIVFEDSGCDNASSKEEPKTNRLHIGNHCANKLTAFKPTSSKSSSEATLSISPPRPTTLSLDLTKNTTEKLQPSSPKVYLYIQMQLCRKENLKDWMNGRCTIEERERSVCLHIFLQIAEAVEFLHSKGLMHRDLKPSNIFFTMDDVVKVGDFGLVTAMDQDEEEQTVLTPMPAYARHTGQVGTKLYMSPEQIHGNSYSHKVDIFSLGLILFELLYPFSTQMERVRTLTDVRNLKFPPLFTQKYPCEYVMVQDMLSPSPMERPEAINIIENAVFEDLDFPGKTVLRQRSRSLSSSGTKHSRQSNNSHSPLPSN
UniProt O75460, residues 19-977: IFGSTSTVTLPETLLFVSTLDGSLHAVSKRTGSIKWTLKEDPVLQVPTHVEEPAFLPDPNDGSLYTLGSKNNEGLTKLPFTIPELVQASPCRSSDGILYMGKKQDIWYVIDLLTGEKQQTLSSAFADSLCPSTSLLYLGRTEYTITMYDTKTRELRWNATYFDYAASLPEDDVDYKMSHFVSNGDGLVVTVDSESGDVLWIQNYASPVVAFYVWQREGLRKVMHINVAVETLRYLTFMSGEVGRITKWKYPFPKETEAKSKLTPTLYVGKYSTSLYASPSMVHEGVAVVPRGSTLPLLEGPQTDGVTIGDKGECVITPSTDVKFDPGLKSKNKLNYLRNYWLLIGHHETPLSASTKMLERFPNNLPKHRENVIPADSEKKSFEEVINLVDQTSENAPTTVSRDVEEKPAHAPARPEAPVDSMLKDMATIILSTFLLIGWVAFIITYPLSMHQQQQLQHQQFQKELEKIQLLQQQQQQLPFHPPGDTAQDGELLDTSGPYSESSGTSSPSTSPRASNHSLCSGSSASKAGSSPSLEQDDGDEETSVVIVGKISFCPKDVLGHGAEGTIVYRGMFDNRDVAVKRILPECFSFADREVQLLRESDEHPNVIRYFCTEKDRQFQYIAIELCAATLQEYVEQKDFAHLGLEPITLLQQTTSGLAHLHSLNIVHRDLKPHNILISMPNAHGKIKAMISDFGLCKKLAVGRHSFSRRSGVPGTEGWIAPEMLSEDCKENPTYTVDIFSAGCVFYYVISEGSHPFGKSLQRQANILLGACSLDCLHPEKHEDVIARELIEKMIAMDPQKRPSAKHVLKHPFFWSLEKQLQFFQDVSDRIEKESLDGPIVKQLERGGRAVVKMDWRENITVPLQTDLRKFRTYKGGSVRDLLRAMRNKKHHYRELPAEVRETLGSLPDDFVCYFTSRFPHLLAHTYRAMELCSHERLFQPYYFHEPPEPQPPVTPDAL

No constants are given. Whether binding was seen depends on the method and setting. In cells and extracts the contact can be indirect. A yes stands for co-enrichment or nearness to the bait. Other partners may have been found. A no says only that the protein was not detected with the bait.

The chains are these.
B1: TRIM29 (hit of the RNF13 IP-MS) (protein, UniProt Q14134 1-588)
chain: MEAADASRSNGSSPEARDARSPSGPSGSLENGTKADGKDAKTTNGHGGEAAEGKSLGSALKPGEGRSALFAGNEWRRPIIQFVESGDDKNSNYFSMDSMEGKRSPYAGLQLGAAKKPPVTFAEKGELRKSIFSESRKPTVSIMEPGETRRNSYPRADTGLFSRSKSGSEEVLCDSCIGNKQKAVKSCLVCQASFCELHLKPHLEGAAFRDHQLLEPIRDFEARKCPVHGKTMELFCQTDQTCICYLCMFQEHKNHSTVTVEEAKAEKETELSLQKEQLQLKIIEIEDEAEKWQKEKDRIKSFTTNEKAILEQNFRDLVRDLEKQKEEVRAALEQREQDAVDQVKVIMDALDERAKVLHEDKQTREQLHSISDSVLFLQEFGALMSNYSLPPPLPTYHVLLEGEGLGQSLGNFKDDLLNVCMRHVEKMCKADLSRNFIERNHMENGGDHRYVNNYTNSFGGEWSAPDTMKRYSMYLTPKGGVRTSYQPSSPGRFTKETTQKNFNNLYGTKGNYTSRVWEYSSSIQNSDNDLPVVQGSSSFSLKGYPSLMRSQSPKAQPQTWKSGKQTMLSHYRPFYVNKGNGIGSNEAP

For this assay, the target named is HA-RNF13 (RING finger protein 13) (UniProt O43567). The assay can be described thus: affinity purification with mass spectrometry; anti-HA immunoprecipitate against anti-IgG immunoprecipitate from transfected cells; eluate on SDS-PAGE, silver stain, bands cut out, LC-MS/MS; candidates present in anti-HA, absent in anti-IgG, unique peptides > 2.
In the case of “STING (sought in the RNF13 IP-MS) (from UniProt Q86WV6 1-379)”, the binding result was “no binding”. Regarding ATF6 (from UniProt P18850 1-670), the binding result is reported as “no binding”. As to PERK (from UniProt Q9NZJ5 30-1116), the binding result was “no binding”. The same measure for IRE1 (from UniProt O75460 19-977): “no binding”; for B1: “binds”.
